Values of other authors as cited in patent publication US10104882B2, “Methods and compositions for preventing and treating electrophile-mediated toxicities” (priority 2013, dated 2018).
At least one compound was matched to its structure with a doubt left.

Details: cited from earlier work

Compound	ability to complex metal ions
O=C1CCC(=O)C1 [CPD, 1,3-cyclopenanedione]	inactive
CC1(C)CC(=O)CC(=O)C1 [DMD, dimedone]	inactive
CC1(C)OC(=O)CC(=O)O1 [MA, Meldrum's acid]	inactive
